Source: the supplement of paper PMC12873370
“And” between values parts separate entries of the source, which are not always exact repeats. Identical values can stand only once. Some of the results follow. Many values rest on one well or one pass, so single values are uncertain.

Key:
[1] = tested on: MEPP (mouse ovarian epithelium Trp53/Pten KO); assay: cell viability relative to untreated (fraction); higher = less growth inhibition; conditions: 5 µM; 3 days
[2] = tested on: PREPP (mouse prostate epithelium Trp53/Pten KO); assay: as above; conditions: 5 µM; 3 days

In the case of `CC(/C=C/C=C(\C)C(=O)O[C@@H]1O[C@H](CO[C@@H]2O[C@H](CO)[C@@H](O)[C@H](O)[C@H]2O)[C@@H](O)[C@H](O)[C@H]1O)=C\C=C\C=C(C)\C=C\C=C(/C)C(=O)O[C@@H]1O[C@H](CO[C@@H]2O[C@H](CO)[C@@H](O)[C@H](O)[C@H]2O)[C@@H](O)[C@H](O)[C@H]1O`, the cell viability [1] is reported as 1.07 and the cell viability [2] is reported as 0.956.
For `COc1cc(CO)ccc1O`, the cell viability [1] was 0.918 and the cell viability [2] was 1.03.
With `O=C(/C=C/c1ccc(O)c(O)c1)O[C@H](Cc1ccc(O)c(O)c1)C(=O)O` the cell viability [1] was 0.801 and the cell viability [2] was 1.15.
Work on `CC[C@]1(O)C[C@H]2CN(CCc3c([nH]c4ccccc34)[C@@](C(=O)OC)(c3cc4c(cc3OC)N(C=O)[C@H]3[C@@](O)(C(=O)OC)[C@H](OC(C)=O)[C@]5(CC)C=CCN6CC[C@]43[C@@H]65)C2)C1` yielded a cell viability [1] of 0.581 and a cell viability [2] of 0.599.
`C=C(C)[C@@H]1CCC2=CC(=O)C[C@@H](C)[C@]2(C)C1` was tested, and the cell viability [1] was 1.03 and the cell viability [2] was 0.893.
Work on `CO[C@H]1O[C@@H]2O[C@@]3(C)CC[C@H]4[C@H](C)CC[C@@H]([C@H]1C)[C@@]24OO3` yielded a cell viability [1] of 1.02 and a cell viability [2] of 0.804.
`CC(C)(O)CC(=O)O` showed a cell viability [1] of 0.957 and a cell viability [2] of 0.868.
With `C=C(C)C1CCC2(C)CCC(=O)C(C)=C2C1` (configuration not stated) the cell viability [1] was 1.16 and the cell viability [2] was 1.09.
With `COc1cccc(CC(=O)O)c1` the cell viability [1] was 0.959 and the cell viability [2] was 0.892.
In the case of `COc1ccc(CC(=O)O)cc1OC`, the cell viability [1] is reported as 1.04 and the cell viability [2] is reported as 0.919.
Work on `C=C1C(=O)[C@]23[C@H](O)[C@H]1CC[C@H]2[C@@]12CO[C@]3(O)[C@@H](O)[C@@H]1C(C)(C)CC[C@@H]2O` yielded a cell viability [1] of 0.637 and a cell viability [2] of 0.71.
For `CC1(C)S[C@@H]2[C@H](NC(=O)[C@H](N)c3ccccc3)C(=O)N2[C@H]1C(=O)O`, the cell viability [1] was 1.08 and 1.13 and the cell viability [2] was 0.8 and 0.836.
`CC1=CC(=O)c2ccccc2C1=O` showed a cell viability [1] of 1.03 and a cell viability [2] of 0.947.
For `C[C@H](N)C(=O)O.N[C@@H](Cc1ccc(O)cc1)C(=O)O`, the cell viability [1] was 0.925 and the cell viability [2] was 0.981.
Compound `NCCS(=O)(=O)O` has a cell viability [1] of 1.2 and a cell viability [2] of 0.942.
For `COC(=O)C1=CO[C@@H](O[C@@H]2O[C@H](CO)[C@@H](O)[C@H](O)[C@H]2O)[C@@H]2[C@@H](C)[C@@H](O)C[C@H]12`, the cell viability [1] was 1.72 and the cell viability [2] was 0.876.
